The record followed here is article PMC12221972.

Protein sequences, listed by entry. Tags and fused reporters are not part of them. Lines headed by an entry give the natural chain unless they say otherwise; changes in a name come on top.
UniProt Q8IIS4: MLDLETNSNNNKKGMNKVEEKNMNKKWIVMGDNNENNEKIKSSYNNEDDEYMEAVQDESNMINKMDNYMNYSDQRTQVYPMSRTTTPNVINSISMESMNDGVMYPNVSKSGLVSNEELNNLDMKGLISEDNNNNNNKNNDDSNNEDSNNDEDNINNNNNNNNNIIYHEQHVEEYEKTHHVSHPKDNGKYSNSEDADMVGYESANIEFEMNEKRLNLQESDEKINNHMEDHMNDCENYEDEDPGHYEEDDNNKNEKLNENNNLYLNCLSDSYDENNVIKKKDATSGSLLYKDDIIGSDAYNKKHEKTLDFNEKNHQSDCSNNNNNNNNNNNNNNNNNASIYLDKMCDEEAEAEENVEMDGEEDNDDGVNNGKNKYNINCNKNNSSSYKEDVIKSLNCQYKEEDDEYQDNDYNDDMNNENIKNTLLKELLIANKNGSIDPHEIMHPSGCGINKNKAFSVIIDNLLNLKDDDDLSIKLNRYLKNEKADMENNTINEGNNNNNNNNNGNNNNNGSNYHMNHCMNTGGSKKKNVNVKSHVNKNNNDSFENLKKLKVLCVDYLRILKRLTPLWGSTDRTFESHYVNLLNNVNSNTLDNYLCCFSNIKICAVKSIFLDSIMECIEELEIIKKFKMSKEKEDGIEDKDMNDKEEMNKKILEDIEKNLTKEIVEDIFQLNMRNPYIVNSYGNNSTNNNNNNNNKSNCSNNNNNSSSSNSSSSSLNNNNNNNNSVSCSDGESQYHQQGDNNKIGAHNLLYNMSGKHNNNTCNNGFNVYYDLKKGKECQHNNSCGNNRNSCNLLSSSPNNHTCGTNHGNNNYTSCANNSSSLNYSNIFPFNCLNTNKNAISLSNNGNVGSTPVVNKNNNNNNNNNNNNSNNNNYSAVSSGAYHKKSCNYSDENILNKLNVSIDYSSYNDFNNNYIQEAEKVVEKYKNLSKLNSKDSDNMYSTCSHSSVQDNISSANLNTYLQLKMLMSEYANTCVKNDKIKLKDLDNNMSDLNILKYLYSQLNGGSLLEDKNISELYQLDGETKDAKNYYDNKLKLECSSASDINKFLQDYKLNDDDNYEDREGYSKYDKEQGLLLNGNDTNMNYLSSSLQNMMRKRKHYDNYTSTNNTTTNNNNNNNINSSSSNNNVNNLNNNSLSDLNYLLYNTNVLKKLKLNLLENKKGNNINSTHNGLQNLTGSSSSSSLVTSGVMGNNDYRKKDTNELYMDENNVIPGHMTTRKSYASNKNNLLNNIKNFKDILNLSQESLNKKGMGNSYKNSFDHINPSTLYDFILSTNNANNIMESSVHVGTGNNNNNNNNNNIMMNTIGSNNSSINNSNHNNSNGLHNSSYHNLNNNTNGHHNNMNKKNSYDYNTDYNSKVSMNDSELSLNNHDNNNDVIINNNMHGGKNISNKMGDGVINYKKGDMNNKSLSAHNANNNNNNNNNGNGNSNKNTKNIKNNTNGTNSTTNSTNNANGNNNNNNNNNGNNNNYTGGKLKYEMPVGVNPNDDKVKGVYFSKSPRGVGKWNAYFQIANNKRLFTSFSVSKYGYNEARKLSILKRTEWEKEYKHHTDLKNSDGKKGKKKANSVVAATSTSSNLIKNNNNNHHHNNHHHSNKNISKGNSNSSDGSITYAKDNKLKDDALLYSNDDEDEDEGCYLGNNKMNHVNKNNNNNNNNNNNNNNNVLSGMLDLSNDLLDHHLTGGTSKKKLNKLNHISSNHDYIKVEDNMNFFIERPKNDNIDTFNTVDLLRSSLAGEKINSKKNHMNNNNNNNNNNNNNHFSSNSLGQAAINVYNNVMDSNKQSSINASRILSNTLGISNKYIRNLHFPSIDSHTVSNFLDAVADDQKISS
UniProt Q8IKF6: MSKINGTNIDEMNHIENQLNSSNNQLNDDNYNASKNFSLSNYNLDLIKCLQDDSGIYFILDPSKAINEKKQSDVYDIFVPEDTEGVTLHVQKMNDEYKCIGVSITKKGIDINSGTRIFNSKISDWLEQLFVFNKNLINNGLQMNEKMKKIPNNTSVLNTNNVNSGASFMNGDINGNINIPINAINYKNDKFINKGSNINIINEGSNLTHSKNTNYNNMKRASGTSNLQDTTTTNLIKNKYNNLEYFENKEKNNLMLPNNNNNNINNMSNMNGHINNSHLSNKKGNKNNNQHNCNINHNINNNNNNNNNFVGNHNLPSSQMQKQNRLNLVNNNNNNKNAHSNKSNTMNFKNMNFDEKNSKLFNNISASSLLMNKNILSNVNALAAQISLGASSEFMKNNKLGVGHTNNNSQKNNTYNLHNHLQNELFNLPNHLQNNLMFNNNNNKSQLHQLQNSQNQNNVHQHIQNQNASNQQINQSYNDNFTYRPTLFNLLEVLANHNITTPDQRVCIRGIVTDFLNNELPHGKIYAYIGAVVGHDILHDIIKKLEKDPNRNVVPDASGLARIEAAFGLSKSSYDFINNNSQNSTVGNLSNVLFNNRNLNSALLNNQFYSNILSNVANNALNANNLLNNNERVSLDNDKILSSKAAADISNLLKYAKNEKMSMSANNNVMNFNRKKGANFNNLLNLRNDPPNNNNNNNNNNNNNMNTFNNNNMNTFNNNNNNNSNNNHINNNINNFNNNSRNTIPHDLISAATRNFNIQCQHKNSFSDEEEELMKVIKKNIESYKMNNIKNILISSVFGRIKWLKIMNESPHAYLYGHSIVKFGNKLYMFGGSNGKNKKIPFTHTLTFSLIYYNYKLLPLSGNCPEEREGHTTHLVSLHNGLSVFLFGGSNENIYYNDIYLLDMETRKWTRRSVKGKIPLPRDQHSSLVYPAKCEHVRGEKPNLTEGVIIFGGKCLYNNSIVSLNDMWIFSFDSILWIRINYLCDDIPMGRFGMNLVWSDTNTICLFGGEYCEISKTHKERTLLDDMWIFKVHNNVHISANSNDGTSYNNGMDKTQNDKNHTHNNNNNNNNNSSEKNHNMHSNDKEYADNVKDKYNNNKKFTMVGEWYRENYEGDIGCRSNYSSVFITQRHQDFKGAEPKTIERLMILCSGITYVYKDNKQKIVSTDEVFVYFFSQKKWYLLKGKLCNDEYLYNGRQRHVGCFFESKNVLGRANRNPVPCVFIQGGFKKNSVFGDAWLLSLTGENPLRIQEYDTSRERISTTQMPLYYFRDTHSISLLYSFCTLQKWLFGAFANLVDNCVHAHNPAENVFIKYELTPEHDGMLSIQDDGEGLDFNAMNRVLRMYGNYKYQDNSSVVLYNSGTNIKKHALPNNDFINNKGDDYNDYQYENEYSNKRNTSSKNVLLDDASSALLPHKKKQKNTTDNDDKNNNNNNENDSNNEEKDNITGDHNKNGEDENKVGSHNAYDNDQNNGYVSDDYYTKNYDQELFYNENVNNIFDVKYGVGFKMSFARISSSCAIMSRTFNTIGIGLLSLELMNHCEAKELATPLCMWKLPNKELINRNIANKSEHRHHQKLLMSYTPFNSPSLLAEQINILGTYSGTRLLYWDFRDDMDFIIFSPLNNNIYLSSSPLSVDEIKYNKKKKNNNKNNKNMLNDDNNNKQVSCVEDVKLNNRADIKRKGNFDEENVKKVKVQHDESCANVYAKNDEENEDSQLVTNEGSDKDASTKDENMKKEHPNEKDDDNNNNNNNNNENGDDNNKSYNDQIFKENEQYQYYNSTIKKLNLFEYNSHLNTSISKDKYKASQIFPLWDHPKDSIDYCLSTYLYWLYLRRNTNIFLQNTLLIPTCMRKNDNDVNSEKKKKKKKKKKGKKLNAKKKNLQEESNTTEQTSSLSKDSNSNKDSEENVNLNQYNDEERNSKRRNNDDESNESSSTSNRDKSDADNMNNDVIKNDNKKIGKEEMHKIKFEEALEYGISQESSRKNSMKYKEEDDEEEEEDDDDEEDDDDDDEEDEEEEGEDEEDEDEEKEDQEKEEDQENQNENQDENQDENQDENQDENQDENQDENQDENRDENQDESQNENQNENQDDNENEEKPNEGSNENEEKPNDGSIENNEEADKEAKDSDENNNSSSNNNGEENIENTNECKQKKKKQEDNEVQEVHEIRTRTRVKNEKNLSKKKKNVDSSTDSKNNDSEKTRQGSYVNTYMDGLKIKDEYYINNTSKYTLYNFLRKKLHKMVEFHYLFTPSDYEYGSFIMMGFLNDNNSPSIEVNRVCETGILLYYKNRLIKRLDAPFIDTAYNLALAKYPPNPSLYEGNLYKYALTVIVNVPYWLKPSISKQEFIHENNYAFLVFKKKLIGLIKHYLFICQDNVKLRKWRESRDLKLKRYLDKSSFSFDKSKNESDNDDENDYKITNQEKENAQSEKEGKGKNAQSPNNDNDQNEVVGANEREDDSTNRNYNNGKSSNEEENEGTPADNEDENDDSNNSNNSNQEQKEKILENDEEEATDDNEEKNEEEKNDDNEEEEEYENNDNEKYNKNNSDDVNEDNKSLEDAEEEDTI

No constants are given. Whether binding was seen depends on the method and setting. In cells and extracts the contact can be indirect. Binding can be weak; no strength is given.

This experiment deals with AP2-P-3HA (Plasmodium falciparum (3D7)) (UniProt Q8IIS4). The experiment can be described thus: co-IP; AP2-P-3HA-glmS:MORC-GFP parasites cross-linked at 36 hpi; anti-HA antibody (or IgG as control) on Protein G Dynabeads incubated with diluted nuclear lysates 4 h at 4 °C; western blot with anti-HA, anti-GFP and anti-H3.

On to MORC-GFP (from UniProt Q8IKF6), for which the binding result was “binds”.
